# Assay results

Source: PubChem BioAssay AID1053133 (Broad Institute, 2014).

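Plate-reader measure of the Venus reporter marking one vaccinia stage in infected cells (the cell line is not named here); read time unknown. The test concentration is not given here. Percent change in Venus reporter signal; lower (more negative) values mean stronger inhibition of that viral stage.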

Values are in %. How 0% and 100% were set is not given here. Common to all entries: measured here: Venus reporter, other viral stage. This is a side read-out of the assay, for part of the compounds, not drawn at random.

SMILES,activity change (Venus) (%)
COc1ccccc1-c1ccc2c(c1)O[C@@H](CN(C)Cc1ccc3c(c1)OCO3)[C@@H](C)CN([C@@H](C)CO)S2(=O)=O,-62.31
Cc1ccc(S(=O)(=O)Nc2ccc3c(c2)CC(=O)N([C@@H](C)CO)C[C@@H](C)[C@@H](CN(C)CC2CCCCC2)O3)cc1,-24.85
C[C@H]1CN([C@@H](C)CO)C(=O)Cc2cc(NC(=O)Nc3cccc4ccccc34)ccc2O[C@@H]1CN(C)Cc1ccccc1,-22.56
C[C@H](CO)N1C[C@H](C)[C@H](CN(C)C(=O)Nc2ccc(C(F)(F)F)cc2)OCCCC[C@H](C)Oc2ccc(NS(C)(=O)=O)cc2C1=O,-49.39
Cc1ccc(S(=O)(=O)Nc2ccc3c(c2)C(=O)N([C@H](C)CO)C[C@@H](C)[C@H](CN(C)S(=O)(=O)c2ccc(C)cc2)OCCCC[C@@H](C)O3)cc1,-40.94
COc1ccccc1C#Cc1ccc2c(c1)O[C@@H](CN(C)Cc1ccncc1)[C@H](C)CN([C@H](C)CO)S2(=O)=O,-47.7
Cc1ccccc1-c1ccc([C@@H]2[C@@H](CO)N3CCCCN(C(=O)Nc4ccc(F)cc4)C[C@@H]23)cc1,-36.29
C[C@H]1CN([C@@H](C)CO)C(=O)c2cc(NC(=O)Nc3ccc(C(F)(F)F)cc3)ccc2O[C@H]1CN(C)Cc1ccccc1,-47.56
CC(C)CC#Cc1ccc2c(c1)O[C@H](CN(C)C(=O)CC1CC1)[C@@H](C)CN([C@@H](C)CO)S2(=O)=O,-37.58
C[C@H](CO)N1C[C@H](C)[C@@H](CN(C)Cc2ccc(-c3ccccc3)cc2)Oc2ncc(C#CCN(C)C)cc2C1=O,-46.78
Cc1ccc(-c2ccc3c(c2)O[C@@H](CN(C)Cc2ccncc2)[C@@H](C)CN([C@H](C)CO)S3(=O)=O)cc1,-36.07
C[C@@H]1CN([C@@H](C)CO)C(=O)CCCn2cc(nn2)CO[C@H]1CN(C)C(=O)Oc1cccc2ccccc12,-29.3
O=C(Nc1ccc(F)cc1)N1CC(=O)N2[C@H](C1)[C@H](c1ccc(-c3ccccc3)cc1)[C@@H]2CO,-32.05
C[C@H]1CCCCO[C@@H](CN(C)C(=O)NC2CCCCC2)[C@@H](C)CN([C@@H](C)CO)C(=O)c2cc(NC(=O)Cc3ccccc3)ccc2O1,-38.81
C[C@H]1CN([C@@H](C)CO)C(=O)Cc2cc(NC(=O)Nc3ccccc3)ccc2O[C@@H]1CN(C)Cc1ccc(Cl)c(Cl)c1,-39.65
C[C@H](CO)N1C[C@H](C)[C@@H](CN(C)Cc2ccc3c(c2)OCO3)OCCCC[C@H](C)Oc2ccc(NS(=O)(=O)c3ccccc3)cc2C1=O,-16.64
N#C[C@@H]1[C@H](c2ccc(C#CC3CCCC3)cc2)[C@@H](CO)N1C(=O)Nc1ccc(F)cc1,-75.8
C[C@H](CO)N1C[C@H](C)[C@@H](CN(C)Cc2ccccc2)Oc2cc(C#CC3CC3)ccc2S1(=O)=O,-36.24
CO[C@@H]1CN(C)C(=O)c2cc(NC(=O)Nc3cccc(Cl)c3)ccc2OC[C@@H](C)N(C)C[C@@H]1C,-36.31
COc1ccc(-c2ccc3c(c2)[C@H]2[C@H](CCN2S(=O)(=O)c2ccccc2F)[C@H](CO)N3C)cc1,-42.92
COc1ccc(NC(=O)N(C)C[C@H]2OCc3ccccc3-c3c(n(C)c4ccccc34)C(=O)N([C@@H](C)CO)C[C@@H]2C)c(OC)c1,-47.21
O=C1C[C@@](C(=O)NCCN2CCOCC2)(c2ccc([N+](=O)[O-])cc2)[C@@H](c2ccc(CO)cc2I)N1CC12CC3CC(CC(C3)C1)C2,-87.28
COc1ccc(S(=O)(=O)N(C)C[C@H]2OCCCC[C@@H](C)Oc3ccc(NS(=O)(=O)c4cccs4)cc3C(=O)N([C@H](C)CO)C[C@H]2C)cc1,-23.34
C[C@@H]1CCCCO[C@@H](CN(C)Cc2ccccc2)[C@@H](C)CN([C@@H](C)CO)C(=O)c2cc(NC(=O)Nc3ccc(F)cc3)ccc2O1,-22.65
O=S(=O)(c1ccc(F)cc1)N1CC[C@@H]2[C@H](CO)Nc3ccc(-c4ccccc4F)cc3[C@@H]21,-54.33
COc1ccc(NC(=O)Nc2cccc3c2O[C@@H](CN(C)S(=O)(=O)c2ccc(Cl)cc2)[C@@H](C)CN([C@@H](C)CO)C3=O)cc1,-31.53
COc1ccc(S(=O)(=O)N(C)C[C@@H]2OCCCC[C@@H](C)Oc3ccc(NS(=O)(=O)c4ccc(F)cc4)cc3C(=O)N([C@H](C)CO)C[C@H]2C)cc1,-38.69
C[C@@H]1CCCCO[C@@H](CN(C)Cc2ccc3c(c2)OCO3)[C@H](C)CN([C@@H](C)CO)C(=O)c2cc(NS(=O)(=O)c3ccc(Cl)cc3)ccc2O1,-52.22
C[C@@H]1CN([C@H](C)CO)C(=O)Cc2cc(NC(=O)NC3CCCCC3)ccc2O[C@@H]1CN(C)Cc1ccc(-c2ccccc2)cc1,-18.35
COc1ccc(S(=O)(=O)N2CCC3(CC2)CN(C(=O)CN(C)C)[C@@H](CO)c2c3c3ccc(OC)cc3n2C)cc1,-31.73
O=C(C[C@@H]1CC[C@@H]2[C@H](COC[C@@H](O)CN2C(=O)Nc2ccc(Cl)cc2)O1)NC1Cc2ccccc2C1,-43.26
C[C@@H]1CN([C@@H](C)CO)C(=O)Cc2cc(NC(=O)Nc3ccccc3)ccc2O[C@@H]1CN(C)Cc1ccc(-c2ccccc2)cc1,-27.24
Cc1ccc(S(=O)(=O)N(C)C[C@H]2Oc3c(NC(=O)Nc4ccc(C(F)(F)F)cc4)cccc3C(=O)N([C@@H](C)CO)C[C@H]2C)cc1,-53.83
Cc1ccccc1-c1ccc([C@H]2[C@H](CO)N3CCCCN(C(=O)Nc4cccc(F)c4)C[C@@H]23)cc1,-61.54
O=C(Nc1ccc(F)cc1)N[C@H]1CC[C@@H](CCNS(=O)(=O)c2cccc(Cl)c2)O[C@H]1CO,-32.69
O=C(C[C@H]1CC[C@@H]2[C@H](COC[C@@H](O)CN2S(=O)(=O)c2ccc(F)cc2)O1)NCc1ccc(Cl)c(Cl)c1,-20.75
O=C(Nc1ccc(F)cc1)N1CCCCN2[C@H](CO)[C@@H](c3ccc(C#Cc4ccccc4)cc3)[C@@H]2C1,-33
COc1ccc(S(=O)(=O)Nc2ccc3c(c2)CC(=O)N([C@@H](C)CO)C[C@@H](C)[C@H](CN(C)CC2CCCCC2)O3)cc1,-31.23
O=C(Nc1cccc(F)c1)N1CCCCN2[C@@H](CO)[C@@H](c3ccc(-c4ccccc4F)cc3)[C@@H]2C1,-74.14
COc1ccccc1NC(=O)N1CCCCN2[C@H](C1)[C@H](c1ccc(-c3cccc(C#N)c3)cc1)[C@@H]2CO,-41.77
C[C@H]1CCCCO[C@H](CN(C)S(=O)(=O)c2ccc(Cl)cc2)[C@@H](C)CN([C@@H](C)CO)C(=O)c2cc(NC(=O)CCC(F)(F)F)ccc2O1,-44.25
C[C@@H]1CN([C@@H](C)CO)C(=O)c2cc(NC(=O)Nc3ccc(F)cc3)ccc2O[C@@H](C)CCCCO[C@@H]1CN(C)CC1CCCCC1,-37.85
CCC(=O)N1CC2(CCN(Cc3ccc(Cl)cc3)CC2)c2c(n(C)c3cc(OC)ccc23)[C@H]1CO,-70.13
C[C@@H]1CCCCO[C@@H](CN(C)CC2CCCCC2)[C@@H](C)CN([C@H](C)CO)C(=O)c2cc(NC(=O)C3CCCCC3)ccc2O1,-25.18
N#C[C@@H]1[C@H](c2ccc(C#CC3CCCCC3)cc2)[C@@H](CO)N1S(=O)(=O)c1ccccc1,-28.94
N#C[C@@H]1[C@H](c2ccccc2C2=CCCCC2)[C@@H](CO)N1S(=O)(=O)c1cccc(F)c1,-44.76
CCO[C@H]1OC(C(=O)N2CCN(Cc3ccc4c(c3)OCO4)CC2)=C[C@@H](c2csc3ccccc23)[C@@H]1CCCO,-39.66
C[C@@H]1CN([C@H](C)CO)C(=O)c2cc(NS(=O)(=O)c3ccccc3)ccc2O[C@@H](C)CCCCO[C@@H]1CN(C)CC1CCCCC1,-80.6
COc1ccccc1NC(=O)N(C)C[C@@H]1OCc2ccccc2-c2c(n(C)c3ccccc23)C(=O)N([C@@H](C)CO)C[C@H]1C,-48.95
C[C@@H]1CCCCO[C@H](CN(C)Cc2ccccc2)[C@@H](C)CN([C@@H](C)CO)C(=O)c2cc(NC(=O)NC3CCCCC3)ccc2O1,-51.24